According to patent publication US20240059769A1:
Results are given in words; binding and its absence hold for the method and conditions named.

Columns and labels:
[1] = target: IL-17; experiment: specificity ELISA, 250 ng ligand coated
[2] = target: IL-17; experiment: ELISA, 250 ng coated ligand per well, 100 nM IgG, anti-human Fc-HRP

binding [1]: no binding (tested: 100 nM IgG)
binding [2]: no binding (tested: 100 nM)
B1: BDG33.023 (antibody, V domains shown)
VH: QMQLVESGGGVVQPGRSLRLSCAASGFAFRTYGMHWVRQAPGKGLEWVAVIWYDGSNTHYADSVKGRFTITRDNSKNTLNLQMNSLRAEDTAVYYCARAPQWYLSAEAFDLWGQGTMVTVSS
VL: SYVLTQPPSVSVAPGQTARITCGGNLIGSKLVHWYQQKPGQAPVLVVYDDSDRPSRIPERFSGSNSGNTATLTISRVEAGDEADYYCQVWDHSSDHVVFGGGTKLTVL
